Measurements reported in PubChem BioAssay AID686943 (Drosophila RNAi Screening Center, 2013).

Aim: 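Search across the genome for regulators of signalling from receptor tyrosine kinase to ERK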 (primary screen)
Cell system: Drosophila S2R+ haemocyte-like cells expressing YFP-tagged ERK (Rolled)
Knock-down reagent: long dsRNA against Drosophila genes
Conditions: insulin stimulation versus unstimulated cells; dose and duration not given
Measurement: 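Antibody staining for doubly phosphorylated ERK divided by ERK-YFP signal, as plate z-scores, in insulin-treated and untreated cells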
Scale: replicate 1, z-score of dpERK with insulin: higher = more active ERK per ERK-YFP after insulin
The screen tested about 23,000 reagents; below is a random part of those that have a named target and a result. 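Extra replicates exist only for a retested subset of genes; insulin dose and duration not given; both raised and lowered dpERK matter.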 Further read-outs or replicates are left out here. Reagent sequences are not shown. Not stated in the record: the amount of reagent, the time to read-out.

replicate 1, z-score of dpERK with insulin, by gene and reagent
Atxn7 (Ataxin 7): DRSC00726 1.27
GluClalpha (Glutamate-gated chloride channel subunit alpha): DRSC16680 0.52
Cpr67Fb (Cuticular protein 67Fb): DRSC10314 -0.29
GstD10 (Glutathione S transferase D10): DRSC15346 -0.54
CG10031: DRSC00286 -0.85
scpr-B (SCP-containing protein B): DRSC15200 0.27
CG34266: DRSC08323 -1.77
RpL39 (Ribosomal protein L39): DRSC04651 -2.63
CG13280: DRSC02253 0.2
MAN1: DRSC04342 -0.33
CG12698: DRSC19485 -0.24
Elp1 (Elongator complex protein 1): DRSC14250 0.84
PolE2 (DNA polymerase epsilon subunit 2): DRSC09737 -0.8
CG32170: DRSC09452 0.37
Srp9 (Signal recognition particle 9): DRSC10973 -0.91
mbt (mushroom bodies tiny): DRSC20348 -0.42
yip3 (yippee interacting protein 3): DRSC04724 2.29
Obp19d (Odorant-binding protein 19d): DRSC20569 -0.41
TAF1C-like: DRSC04073 0.91
CheB74a (Chemosensory protein B 74a): DRSC09503 -0.85
Jhbp11 (Juvenile hormone binding protein 11): DRSC15183 0.06
CG30379: DRSC05070 0.3
Cyt-b5-r (Cytochrome b5-related): DRSC03308 0.92
Sym (Symplekin): DRSC12301 0.19
spirit (Serine Protease Immune Response Integrator): DRSC18202 -0.38
CG17298: DRSC15221 1.15
cer (crammer): DRSC05992 -0.15
CG15576: DRSC18064 0.36
CG15043: DRSC19619 0.15
Hil (Hillarin): DRSC05989 0.08; DRSC06395 -0.57

Individual results from the entries so far:
Result for RpL39 (Ribosomal protein L39) [DRSC04651] in “replicate 1, z-score of dpERK with insulin”: -2.63
For “replicate 1, z-score of dpERK with insulin”, GstD10 (Glutathione S transferase D10) [DRSC15346] is entered as -0.54
For “replicate 1, z-score of dpERK with insulin”, MAN1 [DRSC04342] reads -0.33
yip3 (yippee interacting protein 3) [DRSC04724], replicate 1, z-score of dpERK with insulin → 2.29
Under “replicate 1, z-score of dpERK with insulin”, Cyt-b5-r (Cytochrome b5-related) [DRSC03308] shows 0.92
CG12698 [DRSC19485], replicate 1, z-score of dpERK with insulin = -0.24

Further results follow.
replicate 1, z-score of dpERK with insulin, by gene and reagent
Pld (Phospholipase D): DRSC04854 0.99
His-Psi:CR31754 (pseudo): DRSC22051 -2.85
CG14657: DRSC12219 0.7; DRSC12243 -0.45
CG17237: DRSC00491 -0.29
ProRS-m (Prolyl-tRNA synthetase, mitochondrial): DRSC08261 0.82
Gpat4 (Glycerol-3-phosphate acyltransferase 4): DRSC04345 1.16
CG3841: DRSC02730 0.37
gry (gryzun): DRSC08028 1.19; DRSC08518 0.86
CG5697: DRSC15858 6.27
Ide (Insulin degrading metalloproteinase): DRSC11867 -0.01
Amacr (Alpha-methylacyl-CoA racemase): DRSC03198 -0.24
CG32221: DRSC09638 -0.09
CG2794: DRSC00534 -0.32
CG13305: DRSC09975 -0.38
ValRS (Valyl-tRNA synthetase): DRSC06864 0.1
Tsp42Ek (Tetraspanin 42Ek): DRSC06187 0.76
CG10862: DRSC08170 0.67
CG6497: DRSC10654 0.7; DRSC21469 0.18
TFAM (mitochondrial transcription factor A): DRSC15552 0.56
CG17059: DRSC06654 -0.84
CG15283: DRSC01980 0.16
CG11951: DRSC14442 1.02
CG33093: DRSC15775 0.27
